Assay results published in PMC4455283, “Crystal structure of TRIM20 C-terminal coiled-coil/B30.2 fragment: implications for the recognition of higher order oligomers” (Scientific Reports, 2015).
These are yes or no findings as the source states them, for the method shown.

Molecular target: isolated TRIM20 B30.2 domain (human) (UniProt O15553)
Assay: AUC; sedimentation velocity analytical ultracentrifugation at 4 °C; both purified

binding: no binding
B1: isolated TRIM20 B30.2 domain (domain or fragment, UniProt O15553 577-781)
chain: TLRSEMEMFNVPELIGAQAHAVNVILDAETAYPNLIFSDDLKSVRLGNKWERLPDGPQRFDSCIIVLGSPSFLSGRRYWEVEVGDKTAWILGACKTSISRKGNMTLSPENGYWVVIMMKENEYQASSVPPTRLLIKEPPKRVGIFVDYRVGSISFYNVTARSHIYTFASCSFSGPLQPIFSPGTRDGGKNTAPLTICPVGGQGPD
